Experimental data: PubChem BioAssay AID504791 (Drosophila RNAi Screening Center, 2011)
Assay: 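Genes of the fly required for silencing by miRNA, siRNA or endo-siRNA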 (primary screen). System: Drosophila S2-derived reporter cells. Knock-down reagent: long dsRNA against Drosophila genes, about 150-250 ng dsRNA per well (siRNA assay); about 80-120 ng (miRNA assay). Timing: about 5 days (siRNA assay); about 4 days (miRNA assay). Treatment: copper sulfate induction of reporters: 25 µM (siRNA assay); 200 mM stated (miRNA assay), 1-2 days before reading. Detection: 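Per-well ratio of Renilla over firefly light, expressed relative to that plate's average ratio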. Hit rule: 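a well was a first-pass pick when its plate-scaled ratio rose above 1.5 (siRNA assay) or 1.6 (miRNA assay), or dropped below 0.6; a gene counted only if two separate dsRNAs agreed on retest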.
The screen tested about 23,000 reagents; shown is a random part of those that have a named target and a result. In the full data, 199 (0.86%) got an active call. 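Plate-scaled ratios behind the calls are not deposited; printed light signals are raw; many rows marked increased or decreased are still called inactive.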 The numbers tell different reagents against one gene apart. Names joined by + are all predicted targets of the reagent. The record does not give: the direction of the score.

| gene | dsRNA no. | stable siRNA reporter change | stable assay Renilla, run 1 (luminescence) | stable assay firefly, run 1 (luminescence) | activity call |
| --- | --- | --- | --- | --- | --- |
| ppk6 (pickpocket 6) | 1 | – | 5770 | 3.14e5 | inactive |
| Rab23 | 1 | – | 6075 | 3.24e5 | inactive |
| PolE1 (DNA polymerase epsilon subunit 1) | 1 | – | 17682 | 5.87e5 | inactive |
| Or42b (Odorant receptor 42b) | 1 | – | 7399 | 4.32e5 | inactive |
| rumi | 1 | reporter ratio raised past the hit cutoff | 9233 | 2.40e5 | inactive |
| vrs (versager) | 1 | – | 5962 | 3.47e5 | inactive |
| spz3 (spatzle 3) | 1 | – | 7911 | 4.41e5 | inactive |
| spz3 (spatzle 3) | 2 | – | 7359 | 3.54e5 | inactive |
| Smug | 1 | – | 7155 | 3.36e5 | inactive |
| CG17819 | 1 | – | 7438 | 4.34e5 | inactive |
| CG33332 | 1 | – | 7614 | 4.47e5 | inactive |
| 140up (upstream of RpII140) | 1 | – | 8458 | 4.07e5 | inactive |
| CG14227 | 1 | – | 3900 | 4.46e5 | inactive |
| ash2 (absent, small, or homeotic discs 2) | 1 | – | 11380 | 3.52e5 | inactive |
| CG4210 | 1 | – | 6432 | 3.19e5 | inactive |
| Mal-A1 (Maltase A1) | 1 | – | 6914 | 3.46e5 | inactive |
| drpr (draper) | 1 | – | 6203 | 3.68e5 | inactive |
| drpr (draper) | 2 | – | 5780 | 3.40e5 | inactive |
| CG30271 | 1 | – | 6450 | 3.66e5 | inactive |
| nocte (no circadian temperature entrainment) | 1 | – | 7135 | 3.55e5 | inactive |
| row (relative of woc) | 1 | – | 10125 | 6.00e5 | inactive |
| row (relative of woc) | 2 | – | 5936 | 3.35e5 | inactive |
| CG12490 | 1 | – | 6214 | 3.62e5 | inactive |
| ac (achaete) | 1 | – | 6731 | 2.72e5 | inactive |
| aus (argus) | 1 | – | 3691 | 3.59e5 | inactive |
| aus (argus) | 2 | reporter ratio raised past the hit cutoff | 1484 | 63163 | inactive |
| aus (argus) | 3 | – | 10121 | 3.72e5 | inactive |
| wnd (wallenda) | 1 | – | 4931 | 3.30e5 | inactive |
| wnd (wallenda) | 2 | – | 9714 | 5.52e5 | inactive |
| wnd (wallenda) | 3 | – | 9508 | 6.37e5 | inactive |
| Dysb (Dysbindin) | 1 | – | 8203 | 4.09e5 | inactive |
| put (punt) | 1 | – | 9030 | 3.90e5 | inactive |
| CG13607 | 1 | – | 8442 | 4.50e5 | inactive |
| Decay (Death executioner caspase related to Apopain/Yama) | 1 | – | 8754 | 5.50e5 | inactive |
| CAH1 + Adat1 | 1 | – | 8769 | 1.75e6 | inactive |
| myd (mayday) | 1 | – | 8673 | 2.88e5 | inactive |
| myd (mayday) | 2 | – | 7359 | 3.74e5 | inactive |
| CG15336 | 1 | – | 5134 | 2.91e5 | inactive |
| CG34178 + CG34177 | 1 | – | 7506 | 4.21e5 | inactive |
| Ser7 | 1 | – | 8239 | 4.22e5 | inactive |
| DCX-EMAP | 1 | – | 6602 | 2.91e5 | inactive |
| DCX-EMAP | 2 | – | 5803 | 2.95e5 | inactive |
| CG9631 | 1 | – | 7755 | 4.58e5 | inactive |
| Cwc25 | 1 | – | 6990 | 4.61e5 | inactive |
| CG11141 | 1 | – | 24664 | 2.39e6 | inactive |
| CG13506 | 1 | – | 6730 | 5.10e5 | inactive |
| Agxt (Alanine-glyoxylate aminotransferase) | 1 | – | 7602 | 4.01e5 | inactive |
| CG11425 | 1 | – | 6998 | 4.34e5 | inactive |
| Tmtc4 (Transmembrane O-mannosyltransferase targeting cadherins 4) | 1 | – | 7088 | 3.27e5 | inactive |
| p47 | 1 | – | 9993 | 2.12e6 | inactive |
| Rpp21 (Ribonuclease P/MRP subunit p21) | 1 | – | 2512 | 2.53e5 | inactive |
| CG9338 | 1 | – | 1.07e5 | 2.64e5 | inactive |
| CG30278 | 1 | – | 4703 | 4.67e5 | inactive |
| Cyp4s3 (Cytochrome P450 4s3) | 1 | – | 4263 | 2.83e5 | inactive |
| Cyp4s3 (Cytochrome P450 4s3) | 2 | – | 8477 | 5.21e5 | inactive |
| CG34242 | 1 | – | 5372 | 4.56e5 | inactive |
| CG11007 | 1 | – | 8039 | 2.92e5 | inactive |

Records listed so far whose gene name begins with S or s:
| gene | dsRNA no. | stable siRNA reporter change | stable assay Renilla, run 1 (luminescence) | stable assay firefly, run 1 (luminescence) | activity call |
| --- | --- | --- | --- | --- | --- |
| spz3 (spatzle 3) | 1 | – | 7911 | 4.41e5 | inactive |
| spz3 (spatzle 3) | 2 | – | 7359 | 3.54e5 | inactive |
| Smug | 1 | – | 7155 | 3.36e5 | inactive |
| Ser7 | 1 | – | 8239 | 4.22e5 | inactive |
